# Laboratory results: patent publication US11780893B2, “Kv1.3 blockers” (Zealand Pharma A/S, priority 2019, dated 2023)
# Sequences of proteins named here, by UniProt entry; tags and fusion partners are left off.
# UniProt P22001, whole entry: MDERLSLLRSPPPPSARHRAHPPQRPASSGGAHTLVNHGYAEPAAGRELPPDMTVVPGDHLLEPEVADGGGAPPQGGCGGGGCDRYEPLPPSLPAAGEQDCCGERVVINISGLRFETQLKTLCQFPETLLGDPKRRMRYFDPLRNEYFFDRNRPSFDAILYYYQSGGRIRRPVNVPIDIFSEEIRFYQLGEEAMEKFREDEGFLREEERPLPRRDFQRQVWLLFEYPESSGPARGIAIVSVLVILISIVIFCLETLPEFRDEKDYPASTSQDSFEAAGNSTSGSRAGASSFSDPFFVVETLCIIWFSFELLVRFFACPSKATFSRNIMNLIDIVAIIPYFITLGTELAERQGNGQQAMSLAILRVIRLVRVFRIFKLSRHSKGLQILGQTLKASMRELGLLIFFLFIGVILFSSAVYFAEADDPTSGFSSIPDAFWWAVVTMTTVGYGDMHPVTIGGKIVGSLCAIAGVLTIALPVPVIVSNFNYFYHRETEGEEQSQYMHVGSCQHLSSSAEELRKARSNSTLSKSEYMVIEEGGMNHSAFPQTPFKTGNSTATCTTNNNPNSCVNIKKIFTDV
# Some of these results come from one statement about several compounds together. Bridge positions count the residues as written; N and C are the ends. Square brackets hold non-standard residues; d marks the D form. Peptide text beside a SMILES is read from it. Nle = CCCC[C@H](N)C(=O)O
# Target: T1, human Kv1.3 voltage-gated K+ channel (Homo sapiens, UniProt P22001)
# T1 construct: host or cells: CHO-DUKX
# Type: cell-based
row,SMILES,IC50
1,"CC[C@H](C)[C@@H]1NC(=O)[C@H](C)NC(=O)[C@H](CCCCN)NC(=O)[C@H](CC(C)C)NC(=O)[C@@H]2CSSC[C@@H](C(=O)N[C@@H](Cc3ccc(O)cc3)C(=O)N3CCC[C@H]3C(=O)N[C@@H](CCCNC(=N)N)C(=O)O)NC(=O)[C@H](CCCCN)NC(=O)[C@@H]3CSSC[C@H](NC(=O)[C@H](CCC(=O)O)NC(=O)[C@H](C(C)C)NC(=O)[C@H](CO)NC(=O)[C@H](C)NC(=O)[C@H](CO)NC(=O)[C@@H](NC(=O)[C@H](CCCNC(=N)N)NC(=O)[C@H](CCSC)NC(=O)[C@H](CC(=O)O)NC(=O)[C@H](CCSC)NC(=O)[C@@H](N)CC(N)=O)CSSC[C@H](NC(=O)[C@H](CCCCN)NC(=O)CNC(=O)[C@H](Cc4ccccc4)NC(=O)[C@H]([C@@H](C)CC)NC(=O)[C@H](CO)NC(=O)CNC1=O)C(=O)N[C@@H](CCSC)C(=O)N[C@@H](CC(N)=O)C(=O)N[C@@H](CCCCN)C(=O)N[C@@H](CCCCN)C(=O)N3)C(=O)N[C@@H](CCCCN)C(=O)N[C@@H](CCC(N)=O)C(=O)N[C@@H](CCCCN)C(=O)N2 [Compound 3] (H-NMDMRCSASVECKQKCLKAIGSIFGKCMNKKCKCYPR-OH; disulfide 6-27, 12-32, 16-34)",≤ 0.3 nM
2,"CC[C@H](C)[C@@H]1NC(=O)[C@H](C)NC(=O)[C@H](CCCCN)NC(=O)[C@H](CC(C)C)NC(=O)[C@@H]2CSSC[C@@H](C(=O)N[C@@H](Cc3ccc(O)cc3)C(=O)N3CCC[C@H]3C(=O)N[C@@H](CCCNC(=N)N)C(=O)O)NC(=O)[C@H](CCCCN)NC(=O)[C@@H]3CSSC[C@H](NC(=O)[C@H](CCC(=O)O)NC(=O)[C@H](C(C)C)NC(=O)[C@H](CO)NC(=O)[C@H](C)NC(=O)[C@H](CO)NC(=O)[C@@H](NC(=O)[C@H](CCCNC(=N)N)NC(=O)[C@H](CCSC)NC(=O)[C@H](CC(=O)O)NC(=O)[C@H](CCSC)NC(=O)[C@@H](N)CC(N)=O)CSSC[C@H](NC(=O)[C@H](CCCCN)NC(=O)CNC(=O)[C@H](Cc4ccccc4)NC(=O)CNC(=O)[C@H](CCCNC(=N)N)NC(=O)CNC1=O)C(=O)N[C@@H](CCSC)C(=O)N[C@@H](CC(N)=O)C(=O)N[C@@H](CCCCN)C(=O)N[C@@H](CCCCN)C(=O)N3)C(=O)N[C@@H](CCCCN)C(=O)N[C@@H](CCC(N)=O)C(=O)N[C@@H](CCCCN)C(=O)N2 [Compound 4] (H-NMDMRCSASVECKQKCLKAIGRGFGKCMNKKCKCYPR-OH; disulfide 6-27, 12-32, 16-34)",≤ 0.3 nM
3,"CC[C@H](C)[C@@H]1NC(=O)[C@H](C)NC(=O)[C@H](CCCCN)NC(=O)[C@H](CC(C)C)NC(=O)[C@@H]2CSSC[C@@H](C(=O)N[C@@H](Cc3ccc(O)cc3)C(=O)N3CCC[C@H]3C(=O)N[C@@H](CCCNC(=N)N)C(N)=O)NC(=O)[C@H](CCCCN)NC(=O)[C@@H]3CSSC[C@H](NC(=O)[C@H](CCC(=O)O)NC(=O)[C@H](C(C)C)NC(=O)[C@H](CO)NC(=O)[C@H](C)NC(=O)[C@H](CO)NC(=O)[C@@H](NC(=O)[C@H](CCCNC(=N)N)NC(=O)[C@H](CCSC)NC(=O)[C@H](CC(=O)O)NC(=O)[C@H](CCSC)NC(=O)[C@@H](N)CC(N)=O)CSSC[C@H](NC(=O)[C@H](CCCCN)NC(=O)CNC(=O)[C@H](Cc4ccccc4)NC(=O)[C@H]([C@@H](C)CC)NC(=O)[C@H](CO)NC(=O)CNC1=O)C(=O)N[C@@H](CCSC)C(=O)N[C@@H](CC(N)=O)C(=O)N[C@@H](CCCCN)C(=O)N[C@@H](CCCCN)C(=O)N3)C(=O)N[C@@H](CCCCN)C(=O)N[C@@H](CCC(N)=O)C(=O)N[C@@H](CCCCN)C(=O)N2 [Compound 7] (H-NMDMRCSASVECKQKCLKAIGSIFGKCMNKKCKCYPR-NH2; disulfide 6-27, 12-32, 16-34)",≤ 0.15 nM
4,"CC[C@H](C)[C@@H]1NC(=O)[C@H](C)NC(=O)[C@H](CCCCN)NC(=O)[C@H](CC(C)C)NC(=O)[C@@H]2CSSC[C@@H](C(=O)N[C@@H](Cc3ccc(O)cc3)C(=O)N3CCC[C@H]3C(=O)N[C@@H](CCCNC(=N)N)C(=O)O)NC(=O)[C@H](CCCCN)NC(=O)[C@@H]3CSSC[C@H](NC(=O)[C@H](CCC(=O)O)NC(=O)[C@H](C(C)C)NC(=O)[C@H](CO)NC(=O)[C@H](C)NC(=O)[C@H](CO)NC(=O)[C@@H](NC(=O)[C@H](CCCNC(=N)N)NC(=O)[C@H](CCSC)NC(=O)[C@H](CC(=O)O)NC(=O)[C@H](CCSC)NC(=O)[C@H](CC(N)=O)NC(=O)CNC(=O)CN)CSSC[C@H](NC(=O)[C@H](CCCCN)NC(=O)CNC(=O)[C@H](Cc4ccccc4)NC(=O)[C@H]([C@@H](C)CC)NC(=O)[C@H](CO)NC(=O)CNC1=O)C(=O)N[C@@H](CCSC)C(=O)N[C@@H](CC(N)=O)C(=O)N[C@@H](CCCCN)C(=O)N[C@@H](CCCCN)C(=O)N3)C(=O)N[C@@H](CCCCN)C(=O)N[C@@H](CCC(N)=O)C(=O)N[C@@H](CCCCN)C(=O)N2 [Compound 11] (H-GGNMDMRCSASVECKQKCLKAIGSIFGKCMNKKCKCYPR-OH; disulfide 8-29, 14-34, 18-36)",≤ 0.3 nM
5,"CC[C@H](C)[C@@H]1NC(=O)[C@H](C)NC(=O)[C@H](CCCCN)NC(=O)[C@H](CC(C)C)NC(=O)[C@@H]2CSSC[C@@H](C(=O)N[C@@H](Cc3ccc(O)cc3)C(=O)N3CCC[C@H]3C(=O)N[C@@H](CCCNC(=N)N)C(=O)O)NC(=O)[C@H](CCCCN)NC(=O)[C@@H]3CSSC[C@H](NC(=O)[C@H](CCC(=O)O)NC(=O)[C@H](C(C)C)NC(=O)[C@H](CO)NC(=O)[C@H](C)NC(=O)[C@H](CO)NC(=O)[C@@H](NC(=O)[C@H](CCCNC(=N)N)NC(=O)[C@H](CCSC)NC(=O)[C@H](CCC(=O)O)NC(=O)[C@H](CCSC)NC(=O)[C@@H](N)CC(N)=O)CSSC[C@H](NC(=O)[C@H](CCCCN)NC(=O)CNC(=O)[C@H](Cc4ccccc4)NC(=O)[C@H]([C@@H](C)CC)NC(=O)[C@H](CO)NC(=O)CNC1=O)C(=O)N[C@@H](CCSC)C(=O)N[C@@H](CC(N)=O)C(=O)N[C@@H](CCCCN)C(=O)N[C@@H](CCCCN)C(=O)N3)C(=O)N[C@@H](CCCCN)C(=O)N[C@@H](CCC(N)=O)C(=O)N[C@@H](CCCCN)C(=O)N2 [Compound 12] (H-NMEMRCSASVECKQKCLKAIGSIFGKCMNKKCKCYPR-OH; disulfide 6-27, 12-32, 16-34)",≤ 0.3 nM
6,"CC[C@H](C)[C@@H]1NC(=O)[C@H](C)NC(=O)[C@H](CCCCN)NC(=O)[C@H](CC(C)C)NC(=O)[C@@H]2CSSC[C@@H](C(=O)N[C@@H](Cc3ccc(O)cc3)C(=O)N3CCC[C@H]3C(=O)N[C@@H](CCCNC(=N)N)C(=O)O)NC(=O)[C@H](CCCCN)NC(=O)[C@@H]3CSSC[C@H](NC(=O)[C@H](CCC(=O)O)NC(=O)[C@H](C(C)C)NC(=O)[C@H](CO)NC(=O)[C@H](C)NC(=O)[C@H](CO)NC(=O)[C@@H](NC(=O)[C@H](CCCNC(=N)N)NC(=O)[C@H](CCSC)NC(=O)[C@H](CC(=O)O)NC(=O)[C@H](CCSC)NC(=O)[C@H](CC(N)=O)NC(=O)CNC(=O)[C@@H](N)CO)CSSC[C@H](NC(=O)[C@H](CCCCN)NC(=O)CNC(=O)[C@H](Cc4ccccc4)NC(=O)[C@H]([C@@H](C)CC)NC(=O)[C@H](CO)NC(=O)CNC1=O)C(=O)N[C@@H](CCSC)C(=O)N[C@@H](CC(N)=O)C(=O)N[C@@H](CCCCN)C(=O)N[C@@H](CCCCN)C(=O)N3)C(=O)N[C@@H](CCCCN)C(=O)N[C@@H](CCC(N)=O)C(=O)N[C@@H](CCCCN)C(=O)N2 [Compound 13] (H-SGNMDMRCSASVECKQKCLKAIGSIFGKCMNKKCKCYPR-OH; disulfide 8-29, 14-34, 18-36)",≤ 0.3 nM
7,"CCCC[C@H](NC(=O)[C@@H](N)CC(N)=O)C(=O)N[C@@H](CC(=O)O)C(=O)N[C@@H](CCSC)C(=O)N[C@@H](CCCNC(=N)N)C(=O)N[C@H]1CSSC[C@@H]2NC(=O)[C@H](CCCCN)NC(=O)CNC(=O)[C@H](Cc3ccccc3)NC(=O)[C@H]([C@@H](C)CC)NC(=O)[C@H](CO)NC(=O)CNC(=O)[C@H]([C@@H](C)CC)NC(=O)[C@H](C)NC(=O)[C@H](CCCCN)NC(=O)[C@H](CC(C)C)NC(=O)[C@@H]3CSSC[C@@H](C(=O)N[C@@H](Cc4ccc(O)cc4)C(=O)N4CCC[C@H]4C(=O)N[C@@H](CCCNC(=N)N)C(N)=O)NC(=O)[C@H](CCCCN)NC(=O)[C@H](CSSC[C@H](NC(=O)[C@H](CCC(=O)O)NC(=O)[C@H](C(C)C)NC(=O)[C@H](CO)NC(=O)[C@H](C)NC(=O)[C@H](CO)NC1=O)C(=O)N[C@@H](CCCCN)C(=O)N[C@@H](CCC(N)=O)C(=O)N[C@@H](CCCCN)C(=O)N3)NC(=O)[C@H](CCCCN)NC(=O)[C@H](CCCCN)NC(=O)[C@H](CC(N)=O)NC(=O)[C@H](CCSC)NC2=O [Compound 14] (H-N[Nle]DMRCSASVECKQKCLKAIGSIFGKCMNKKCKCYPR-NH2; disulfide 6-27, 12-32, 16-34)",≤ 0.3 nM
8,"CCCC[C@H](NC(=O)[C@H](CC(=O)O)NC(=O)[C@H](CCSC)NC(=O)[C@@H](N)CC(N)=O)C(=O)N[C@@H](CCCNC(=N)N)C(=O)N[C@H]1CSSC[C@@H]2NC(=O)[C@H](CCCCN)NC(=O)CNC(=O)[C@H](Cc3ccccc3)NC(=O)[C@H]([C@@H](C)CC)NC(=O)[C@H](CO)NC(=O)CNC(=O)[C@H]([C@@H](C)CC)NC(=O)[C@H](C)NC(=O)[C@H](CCCCN)NC(=O)[C@H](CC(C)C)NC(=O)[C@@H]3CSSC[C@@H](C(=O)N[C@@H](Cc4ccc(O)cc4)C(=O)N4CCC[C@H]4C(=O)N[C@@H](CCCNC(=N)N)C(N)=O)NC(=O)[C@H](CCCCN)NC(=O)[C@H](CSSC[C@H](NC(=O)[C@H](CCC(=O)O)NC(=O)[C@H](C(C)C)NC(=O)[C@H](CO)NC(=O)[C@H](C)NC(=O)[C@H](CO)NC1=O)C(=O)N[C@@H](CCCCN)C(=O)N[C@@H](CCC(N)=O)C(=O)N[C@@H](CCCCN)C(=O)N3)NC(=O)[C@H](CCCCN)NC(=O)[C@H](CCCCN)NC(=O)[C@H](CC(N)=O)NC(=O)[C@H](CCSC)NC2=O [Compound 15] (H-NMD[Nle]RCSASVECKQKCLKAIGSIFGKCMNKKCKCYPR-NH2; disulfide 6-27, 12-32, 16-34)",≤ 0.15 nM
